No constants are given. Whether binding was seen depends on the method and setting. In cells and extracts the contact can be indirect. A yes stands for co-enrichment or nearness to the bait. Other partners may have been found.
Molecular target: Serine and Arginine Rich Splicing Factor 10 (SRSF10) fused to a promiscuous biotin ligase (BirA) (mouse) (UniProt Q9R0U0)
Assay: proximity labelling; BioID: SRSF10-BirA or free BirA transfected into HeLa cells, 50 uM biotin overnight; biotinylated proteins captured on streptavidin dynabeads, on-bead digestion, LC-MS/MS; hits shortlisted against free BirA

Protein sequences, listed by entry. Tags and fused reporters are not part of them. Lines headed by an entry give the natural chain unless they say otherwise; changes in a name come on top.
UniProt Q9R0U0: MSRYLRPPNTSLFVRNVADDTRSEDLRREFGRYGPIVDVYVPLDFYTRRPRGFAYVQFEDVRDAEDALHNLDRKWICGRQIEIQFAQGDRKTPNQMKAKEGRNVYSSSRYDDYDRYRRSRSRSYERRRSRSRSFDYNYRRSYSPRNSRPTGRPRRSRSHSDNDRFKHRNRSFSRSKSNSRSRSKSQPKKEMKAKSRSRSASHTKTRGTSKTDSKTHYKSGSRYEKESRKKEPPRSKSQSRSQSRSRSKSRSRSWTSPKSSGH
UniProt Q16630: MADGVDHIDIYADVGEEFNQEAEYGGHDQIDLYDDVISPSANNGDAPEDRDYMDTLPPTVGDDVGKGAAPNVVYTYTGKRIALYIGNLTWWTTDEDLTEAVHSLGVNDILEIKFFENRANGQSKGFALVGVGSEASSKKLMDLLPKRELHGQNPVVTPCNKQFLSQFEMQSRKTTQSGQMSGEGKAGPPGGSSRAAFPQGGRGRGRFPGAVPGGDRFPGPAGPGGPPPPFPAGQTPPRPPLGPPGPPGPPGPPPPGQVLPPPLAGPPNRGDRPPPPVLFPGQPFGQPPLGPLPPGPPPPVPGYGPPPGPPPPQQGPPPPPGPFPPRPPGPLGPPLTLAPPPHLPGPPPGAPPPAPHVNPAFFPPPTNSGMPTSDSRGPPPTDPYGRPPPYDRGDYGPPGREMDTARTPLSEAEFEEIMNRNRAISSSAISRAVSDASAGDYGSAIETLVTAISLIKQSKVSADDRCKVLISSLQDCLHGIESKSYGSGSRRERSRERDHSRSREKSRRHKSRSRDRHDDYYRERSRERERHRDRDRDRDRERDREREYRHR
UniProt Q69YN4: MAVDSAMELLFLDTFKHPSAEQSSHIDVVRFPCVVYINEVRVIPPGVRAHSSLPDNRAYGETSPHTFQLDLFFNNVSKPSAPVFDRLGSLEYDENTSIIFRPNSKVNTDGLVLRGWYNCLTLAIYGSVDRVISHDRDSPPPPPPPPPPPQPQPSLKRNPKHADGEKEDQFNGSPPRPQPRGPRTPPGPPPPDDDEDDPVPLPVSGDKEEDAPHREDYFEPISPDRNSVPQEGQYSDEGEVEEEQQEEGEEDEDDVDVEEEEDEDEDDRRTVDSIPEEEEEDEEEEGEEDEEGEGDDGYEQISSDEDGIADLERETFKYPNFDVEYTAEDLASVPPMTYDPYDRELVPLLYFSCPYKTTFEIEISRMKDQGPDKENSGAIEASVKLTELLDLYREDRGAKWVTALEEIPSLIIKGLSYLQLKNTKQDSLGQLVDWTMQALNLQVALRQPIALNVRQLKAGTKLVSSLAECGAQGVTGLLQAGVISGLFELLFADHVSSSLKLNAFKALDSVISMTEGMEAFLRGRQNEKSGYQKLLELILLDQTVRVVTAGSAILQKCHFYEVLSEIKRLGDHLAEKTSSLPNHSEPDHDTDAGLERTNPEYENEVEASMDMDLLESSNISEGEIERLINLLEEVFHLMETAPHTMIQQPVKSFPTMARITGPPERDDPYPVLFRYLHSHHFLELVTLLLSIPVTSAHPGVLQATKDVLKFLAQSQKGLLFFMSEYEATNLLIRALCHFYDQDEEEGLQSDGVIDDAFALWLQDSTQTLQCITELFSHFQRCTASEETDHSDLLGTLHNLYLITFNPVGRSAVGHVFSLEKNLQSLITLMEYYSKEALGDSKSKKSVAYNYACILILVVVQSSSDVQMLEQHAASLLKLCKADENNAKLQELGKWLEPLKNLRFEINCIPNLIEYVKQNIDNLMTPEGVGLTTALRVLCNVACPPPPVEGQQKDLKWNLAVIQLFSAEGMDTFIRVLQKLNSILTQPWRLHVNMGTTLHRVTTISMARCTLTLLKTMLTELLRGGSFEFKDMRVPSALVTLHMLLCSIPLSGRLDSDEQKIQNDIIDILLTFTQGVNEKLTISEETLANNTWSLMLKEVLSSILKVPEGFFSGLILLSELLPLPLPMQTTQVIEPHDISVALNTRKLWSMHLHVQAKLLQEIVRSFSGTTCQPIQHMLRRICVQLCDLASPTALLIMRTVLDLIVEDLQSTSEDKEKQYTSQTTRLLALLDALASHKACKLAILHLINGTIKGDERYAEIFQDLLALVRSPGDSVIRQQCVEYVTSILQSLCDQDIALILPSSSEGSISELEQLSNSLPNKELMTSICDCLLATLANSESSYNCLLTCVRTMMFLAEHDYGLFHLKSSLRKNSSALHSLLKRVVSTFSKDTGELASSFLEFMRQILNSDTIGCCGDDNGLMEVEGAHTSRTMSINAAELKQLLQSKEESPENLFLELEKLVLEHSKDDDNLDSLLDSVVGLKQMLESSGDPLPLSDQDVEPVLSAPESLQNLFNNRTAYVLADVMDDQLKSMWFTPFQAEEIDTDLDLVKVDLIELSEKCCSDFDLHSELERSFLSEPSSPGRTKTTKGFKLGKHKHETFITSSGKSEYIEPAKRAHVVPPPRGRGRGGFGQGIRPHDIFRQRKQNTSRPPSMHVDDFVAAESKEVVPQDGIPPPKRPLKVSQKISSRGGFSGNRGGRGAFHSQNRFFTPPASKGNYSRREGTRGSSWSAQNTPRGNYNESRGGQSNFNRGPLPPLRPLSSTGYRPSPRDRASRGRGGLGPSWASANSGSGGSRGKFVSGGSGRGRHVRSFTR
UniProt O94913: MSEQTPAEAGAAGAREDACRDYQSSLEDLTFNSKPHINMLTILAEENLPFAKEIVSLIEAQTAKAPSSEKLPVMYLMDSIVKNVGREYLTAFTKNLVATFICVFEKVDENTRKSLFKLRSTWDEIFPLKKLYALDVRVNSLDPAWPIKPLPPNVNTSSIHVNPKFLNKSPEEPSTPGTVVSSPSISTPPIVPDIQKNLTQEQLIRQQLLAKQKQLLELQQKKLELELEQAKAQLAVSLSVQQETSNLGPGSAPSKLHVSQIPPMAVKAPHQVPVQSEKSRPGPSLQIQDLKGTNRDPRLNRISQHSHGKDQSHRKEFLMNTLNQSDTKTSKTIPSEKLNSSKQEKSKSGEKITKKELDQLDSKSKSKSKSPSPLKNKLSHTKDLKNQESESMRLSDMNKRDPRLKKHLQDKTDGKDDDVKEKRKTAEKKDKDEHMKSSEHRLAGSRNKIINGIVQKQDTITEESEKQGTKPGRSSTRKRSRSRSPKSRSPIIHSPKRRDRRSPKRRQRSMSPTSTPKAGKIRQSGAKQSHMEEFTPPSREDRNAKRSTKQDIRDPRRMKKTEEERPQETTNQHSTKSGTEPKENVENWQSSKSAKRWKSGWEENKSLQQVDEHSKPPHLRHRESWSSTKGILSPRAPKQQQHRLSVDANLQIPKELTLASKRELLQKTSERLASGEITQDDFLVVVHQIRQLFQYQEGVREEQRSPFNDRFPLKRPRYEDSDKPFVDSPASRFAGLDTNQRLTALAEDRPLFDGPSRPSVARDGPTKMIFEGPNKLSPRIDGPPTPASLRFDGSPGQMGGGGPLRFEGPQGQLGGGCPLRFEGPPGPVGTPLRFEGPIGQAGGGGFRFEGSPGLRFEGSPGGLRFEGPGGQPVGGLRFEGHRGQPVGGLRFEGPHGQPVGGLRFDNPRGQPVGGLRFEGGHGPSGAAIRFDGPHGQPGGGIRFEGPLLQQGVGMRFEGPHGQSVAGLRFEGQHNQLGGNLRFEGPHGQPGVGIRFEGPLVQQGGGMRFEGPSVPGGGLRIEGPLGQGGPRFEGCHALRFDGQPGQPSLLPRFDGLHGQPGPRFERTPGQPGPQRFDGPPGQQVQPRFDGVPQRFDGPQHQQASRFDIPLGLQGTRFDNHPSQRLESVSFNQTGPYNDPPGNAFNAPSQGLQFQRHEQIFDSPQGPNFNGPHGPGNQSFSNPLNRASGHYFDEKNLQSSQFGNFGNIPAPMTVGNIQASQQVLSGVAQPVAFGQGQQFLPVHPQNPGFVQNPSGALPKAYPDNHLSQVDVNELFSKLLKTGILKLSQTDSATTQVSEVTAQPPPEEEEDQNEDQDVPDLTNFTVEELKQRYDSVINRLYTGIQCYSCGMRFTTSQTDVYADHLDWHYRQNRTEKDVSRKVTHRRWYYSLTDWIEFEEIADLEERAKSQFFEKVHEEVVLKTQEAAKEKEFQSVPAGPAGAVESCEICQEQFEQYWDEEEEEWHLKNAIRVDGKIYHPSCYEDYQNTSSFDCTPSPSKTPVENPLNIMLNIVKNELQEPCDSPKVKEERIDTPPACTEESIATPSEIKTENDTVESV

Row | binding | Molecule
1 | binds | CPSF6, member of the cleavage and polyadenylation specificity factor complex (from UniProt Q16630 1-551)
2 | binds | M6A methyltransferase VIRMA (from UniProt Q69YN4 1-1812)
3 | binds | cleavage and polyadenylation factor subunit PCF11 (from UniProt O94913 1-1555)
4 | binds | FIP1L1, member of the cleavage and polyadenylation specificity factor complex (protein, UniProt Q6UN15 1-594) MSAGEVERLVSELSGGTGGDEEEEWLYGGPWDVHVHSDLAKDLDENEVERPEEENASANPPSGIEDETAENGVPKPKVTETEDDSDSDSDDDEDDVHVTIGDIKTGAPQYGSYGTAPVNLNIKTGGRVYGTTGTKVKGVDLDAPGSINGVPLLEVDLDSFEDKPWRKPGADLSDYFNYGFNEDTWKAYCEKQKRIRMGLEVIPVTSTTNKITAEDCTMEVTPGAEIQDGRFNLFKVQQGRTGNSEKETALPSTKAEFTSPPSLFKTGLPPSRNSTSSQSQTSTASRKANSSVGKWQDRYGRAESPDLRRLPGAIDVIGQTITISRVEGRRRANENSNIQVLSERSATEVDNNFSKPPPFFPPGAPPTHLPPPPFLPPPPTVSTAPPLIPPPGFPPPPGAPPPSLIPTIESGHSSGYDSRSARAFPYGNVAFPHLPGSAPSWPSLVDTSKQWDYYARREKDRDRERDRDRERDRDRDRERERTRERERERDHSPTPSVFNSDEERYRYREYAERGYERHRASREKEERHRERRHREKEETRHKSSRSNSRRRHESEEGDSHRRHKHKKSKRSKEGKEAGSEPAPEQESTEATPAE
5 | binds | CPSF7, member of the cleavage and polyadenylation specificity factor complex (protein, UniProt Q8N684 1-471) MSEGVDLIDIYADEEFNQDPEFNNTDQIDLYDDVLTATSQPSDDRSSSTEPPPPVRQEPSPKPNNKTPAILYTYSGLRNRRAAVYVGSFSWWTTDQQLIQVIRSIGVYDVVELKFAENRANGQSKGYAEVVVASENSVHKLLELLPGKVLNGEKVDVRPATRQNLSQFEAQARKRECVRVPRGGIPPRAHSRDSSDSADGRATPSENLVPSSARVDKPPSVLPYFNRPPSALPLMGLPPPPIPPPPPLSSSFGVPPPPPGIHYQHLMPPPPRLPPHLAVPPPGAIPPALHLNPAFFPPPNATVGPPPDTYMKASAPYNHHGSRDSGPPPSTVSEAEFEDIMKRNRAISSSAISKAVSGASAGDYSDAIETLLTAIAVIKQSRVANDERCRVLISSLKDCLHGIEAKSYSVGASGSSSRKRHRSRERSPSRSRESSRRHRDLLHNEDRHDDYFQERNREHERHRDRERDRHH
6 | binds | CPSF2, member of the cleavage and polyadenylation specificity factor complex (protein, UniProt Q9P2I0 1-782) MTSIIKLTTLSGVQEESALCYLLQVDEFRFLLDCGWDEHFSMDIIDSLRKHVHQIDAVLLSHPDPLHLGALPYAVGKLGLNCAIYATIPVYKMGQMFMYDLYQSRHNTEDFTLFTLDDVDAAFDKIQQLKFSQIVNLKGKGHGLSITPLPAGHMIGGTIWKIVKDGEEEIVYAVDFNHKREIHLNGCSLEMLSRPSLLITDSFNATYVQPRRKQRDEQLLTNVLETLRGDGNVLIAVDTAGRVLELAQLLDQIWRTKDAGLGVYSLALLNNVSYNVVEFSKSQVEWMSDKLMRCFEDKRNNPFQFRHLSLCHGLSDLARVPSPKVVLASQPDLECGFSRDLFIQWCQDPKNSIILTYRTTPGTLARFLIDNPSEKITEIELRKRVKLEGKELEEYLEKEKLKKEAAKKLEQSKEADIDSSDESDIEEDIDQPSAHKTKHDLMMKGEGSRKGSFFKQAKKSYPMFPAPEERIKWDEYGEIIKPEDFLVPELQATEEEKSKLESGLTNGDEPMDQDLSDVPTKCISTTESIEIKARVTYIDYEGRSDGDSIKKIINQMKPRQLIIVHGPPEASQDLAECCRAFGGKDIKVYMPKLHETVDATSETHIYQVRLKDSLVSSLQFCKAKDAELAWIDGVLDMRVSKVDTGVILEEGELKDDGEDSEMQVEAPSDSSVIAQQKAMKSLFGDDEKETGEESEIIPTLEPLPPHEVPGHQSVFMNEPRLSDFKQVLLREGIQAEFVGGVLVCNNQVAVRRTETGRIGLEGCLCQDFYRIRDLLYEQYAIV
